# Source: the M2OR odorant receptor database
# Chains of the proteins cited; added tags and fusions are not shown. A line that says so, or that is headed by a name, gives the form on record, which may keep a tag or linker.
# O11H2, as listed by the source: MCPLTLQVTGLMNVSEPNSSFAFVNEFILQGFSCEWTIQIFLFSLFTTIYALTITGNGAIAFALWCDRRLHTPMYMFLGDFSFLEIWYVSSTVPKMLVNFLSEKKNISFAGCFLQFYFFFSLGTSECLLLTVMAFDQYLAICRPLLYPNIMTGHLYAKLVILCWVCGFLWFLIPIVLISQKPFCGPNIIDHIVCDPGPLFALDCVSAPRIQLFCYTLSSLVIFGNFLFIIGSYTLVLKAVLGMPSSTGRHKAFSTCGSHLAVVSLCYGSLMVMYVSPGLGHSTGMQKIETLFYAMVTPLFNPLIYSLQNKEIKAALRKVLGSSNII
# O11H6, as listed by the source: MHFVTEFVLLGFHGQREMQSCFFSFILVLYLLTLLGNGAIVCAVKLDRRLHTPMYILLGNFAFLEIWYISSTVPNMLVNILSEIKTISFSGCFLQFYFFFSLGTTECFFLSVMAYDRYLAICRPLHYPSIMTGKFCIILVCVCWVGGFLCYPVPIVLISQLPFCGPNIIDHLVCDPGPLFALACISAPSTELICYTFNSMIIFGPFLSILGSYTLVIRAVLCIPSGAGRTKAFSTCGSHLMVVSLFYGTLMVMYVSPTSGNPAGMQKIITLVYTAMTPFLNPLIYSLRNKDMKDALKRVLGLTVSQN
# Positions count from the first letter of the chain named. The list shows a part of the results. The calls were merged from several studies; some rest on single wells.
# Experiments:
# Conditions in all cases: stereoisomer not certain
# [1] = test system: T1, O10J3
# T1 sequence (whole entry): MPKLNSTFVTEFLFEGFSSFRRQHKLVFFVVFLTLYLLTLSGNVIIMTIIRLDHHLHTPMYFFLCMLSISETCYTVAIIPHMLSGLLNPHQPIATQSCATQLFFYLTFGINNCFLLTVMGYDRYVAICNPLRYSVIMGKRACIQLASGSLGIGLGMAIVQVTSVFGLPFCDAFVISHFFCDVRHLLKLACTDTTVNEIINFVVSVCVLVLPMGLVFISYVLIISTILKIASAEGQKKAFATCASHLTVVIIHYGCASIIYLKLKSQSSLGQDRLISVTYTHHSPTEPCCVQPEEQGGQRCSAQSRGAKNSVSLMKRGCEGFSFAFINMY
# Summary of the method: (§1)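 Each entry records the cell line, G-protein, co-transfected protein and tags used. Methods varied with the source, often transient luciferase assays in mammalian cell lines. A receptor–molecule pair is called responsive (active) if the original authors judged its signal statistically different from baseline and non-responsive (inactive) otherwise.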
# [2] = test system: T2, O10J5
# T2 sequence (whole entry): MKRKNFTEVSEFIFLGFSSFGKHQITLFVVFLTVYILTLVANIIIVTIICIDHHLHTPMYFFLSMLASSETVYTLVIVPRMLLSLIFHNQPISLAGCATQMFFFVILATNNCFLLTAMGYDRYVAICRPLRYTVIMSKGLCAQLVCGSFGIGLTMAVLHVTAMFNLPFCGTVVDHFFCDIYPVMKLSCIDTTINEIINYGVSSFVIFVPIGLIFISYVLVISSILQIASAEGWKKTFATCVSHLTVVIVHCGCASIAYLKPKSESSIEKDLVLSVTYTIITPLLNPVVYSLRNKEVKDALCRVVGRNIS
# Summary of the method: as §1
# [3] = test system: T3, O10P1
# T3 sequence (whole entry): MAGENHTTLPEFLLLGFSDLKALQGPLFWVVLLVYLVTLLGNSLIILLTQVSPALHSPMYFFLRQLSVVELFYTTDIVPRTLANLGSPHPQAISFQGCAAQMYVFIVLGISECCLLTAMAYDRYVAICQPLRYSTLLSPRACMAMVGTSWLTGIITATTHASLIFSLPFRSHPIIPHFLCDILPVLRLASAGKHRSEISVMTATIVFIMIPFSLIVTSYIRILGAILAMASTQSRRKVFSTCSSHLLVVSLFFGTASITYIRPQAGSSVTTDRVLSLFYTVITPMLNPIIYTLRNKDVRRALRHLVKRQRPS
# Summary of the method: as §1
# [4] = test system: T4, O10Q1
# T4 sequence (whole entry): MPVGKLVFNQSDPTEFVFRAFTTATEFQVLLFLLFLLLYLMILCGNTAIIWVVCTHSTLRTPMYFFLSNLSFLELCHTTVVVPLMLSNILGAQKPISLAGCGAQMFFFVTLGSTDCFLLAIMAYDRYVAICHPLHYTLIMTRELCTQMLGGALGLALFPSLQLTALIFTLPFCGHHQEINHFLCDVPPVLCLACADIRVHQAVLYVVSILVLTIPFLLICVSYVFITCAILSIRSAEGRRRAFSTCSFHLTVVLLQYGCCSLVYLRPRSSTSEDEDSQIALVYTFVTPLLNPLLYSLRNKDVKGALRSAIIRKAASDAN
# Summary of the method: as §1
# [5] = test system: T5, O10R2
# T5 sequence (whole entry): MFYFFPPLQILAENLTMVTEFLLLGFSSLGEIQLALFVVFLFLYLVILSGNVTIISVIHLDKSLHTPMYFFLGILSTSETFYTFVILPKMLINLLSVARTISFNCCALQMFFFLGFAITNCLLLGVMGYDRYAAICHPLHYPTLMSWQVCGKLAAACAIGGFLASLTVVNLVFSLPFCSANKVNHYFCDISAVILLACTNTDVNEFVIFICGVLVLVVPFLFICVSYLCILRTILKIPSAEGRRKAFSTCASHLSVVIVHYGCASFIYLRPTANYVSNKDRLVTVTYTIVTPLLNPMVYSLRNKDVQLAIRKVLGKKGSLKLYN
# Summary of the method: as §1
# [6] = test system: T6, O10R2; remark: listed apart in the source
# T6 sequence (whole entry): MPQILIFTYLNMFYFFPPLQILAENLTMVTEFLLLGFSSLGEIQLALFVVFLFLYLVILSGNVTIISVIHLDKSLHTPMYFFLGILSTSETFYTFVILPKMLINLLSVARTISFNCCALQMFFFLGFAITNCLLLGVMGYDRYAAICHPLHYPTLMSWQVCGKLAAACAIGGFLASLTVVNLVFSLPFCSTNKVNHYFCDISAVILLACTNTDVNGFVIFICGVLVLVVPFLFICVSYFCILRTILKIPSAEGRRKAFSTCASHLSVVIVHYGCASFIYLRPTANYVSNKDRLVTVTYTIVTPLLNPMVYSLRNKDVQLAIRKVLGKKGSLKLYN
# Summary of the method: as §1
# [7] = test system: T7, O10V1
# T7 sequence (whole entry): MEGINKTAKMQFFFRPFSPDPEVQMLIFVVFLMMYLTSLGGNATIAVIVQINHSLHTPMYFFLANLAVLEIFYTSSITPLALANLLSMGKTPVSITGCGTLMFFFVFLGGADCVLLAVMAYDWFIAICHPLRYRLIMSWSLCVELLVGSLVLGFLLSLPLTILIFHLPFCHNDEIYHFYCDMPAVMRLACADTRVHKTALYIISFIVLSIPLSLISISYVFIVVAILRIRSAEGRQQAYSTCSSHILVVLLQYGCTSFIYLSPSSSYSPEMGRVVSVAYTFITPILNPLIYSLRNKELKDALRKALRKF
# Summary of the method: as §1
# [8] = test system: T8, O10W1
# T8 sequence (whole entry): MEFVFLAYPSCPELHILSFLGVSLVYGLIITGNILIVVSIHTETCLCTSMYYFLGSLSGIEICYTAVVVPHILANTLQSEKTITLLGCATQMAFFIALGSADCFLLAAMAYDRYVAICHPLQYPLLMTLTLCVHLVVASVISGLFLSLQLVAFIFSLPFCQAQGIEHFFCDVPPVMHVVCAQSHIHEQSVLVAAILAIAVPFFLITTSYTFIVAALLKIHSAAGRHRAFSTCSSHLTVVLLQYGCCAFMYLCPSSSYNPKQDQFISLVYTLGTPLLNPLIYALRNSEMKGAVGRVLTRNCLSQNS
# Summary of the method: as §1
# [9] = test system: T9, O10X1
# T9 sequence (whole entry): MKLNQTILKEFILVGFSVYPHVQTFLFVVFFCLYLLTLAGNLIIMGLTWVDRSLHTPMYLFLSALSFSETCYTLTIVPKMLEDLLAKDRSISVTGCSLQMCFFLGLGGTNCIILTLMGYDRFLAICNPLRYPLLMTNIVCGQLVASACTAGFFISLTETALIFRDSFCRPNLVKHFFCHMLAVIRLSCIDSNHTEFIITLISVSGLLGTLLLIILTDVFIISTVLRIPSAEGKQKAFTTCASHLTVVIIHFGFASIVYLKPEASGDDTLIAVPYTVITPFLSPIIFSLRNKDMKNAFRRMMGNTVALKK
# Summary of the method: as §1
# [10] = test system: T10, O11G2
# T10 sequence (whole entry): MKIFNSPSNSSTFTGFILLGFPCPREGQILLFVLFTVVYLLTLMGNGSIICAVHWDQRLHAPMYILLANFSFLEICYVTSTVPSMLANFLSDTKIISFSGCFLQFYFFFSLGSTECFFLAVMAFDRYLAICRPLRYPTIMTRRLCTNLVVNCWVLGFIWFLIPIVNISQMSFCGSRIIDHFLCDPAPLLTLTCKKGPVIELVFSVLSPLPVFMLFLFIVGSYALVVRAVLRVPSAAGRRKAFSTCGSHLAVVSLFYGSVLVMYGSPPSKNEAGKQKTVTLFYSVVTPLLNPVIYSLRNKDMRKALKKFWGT
# Summary of the method: as §1
# [11] = test system: T11, O11H1
# T11 sequence (whole entry): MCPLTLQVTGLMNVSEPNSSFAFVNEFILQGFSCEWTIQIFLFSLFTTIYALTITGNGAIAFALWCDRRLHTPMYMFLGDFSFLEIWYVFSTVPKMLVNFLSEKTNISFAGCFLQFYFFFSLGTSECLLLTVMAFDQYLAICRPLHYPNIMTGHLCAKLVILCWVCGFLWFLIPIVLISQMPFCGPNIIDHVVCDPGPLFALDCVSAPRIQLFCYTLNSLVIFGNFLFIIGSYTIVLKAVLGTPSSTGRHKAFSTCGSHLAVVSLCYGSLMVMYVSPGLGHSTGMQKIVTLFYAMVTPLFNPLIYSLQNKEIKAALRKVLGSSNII
# Summary of the method: as §1
# [12] = test system: T12, O11H1; remark: listed apart in the source
# T12 sequence (whole entry): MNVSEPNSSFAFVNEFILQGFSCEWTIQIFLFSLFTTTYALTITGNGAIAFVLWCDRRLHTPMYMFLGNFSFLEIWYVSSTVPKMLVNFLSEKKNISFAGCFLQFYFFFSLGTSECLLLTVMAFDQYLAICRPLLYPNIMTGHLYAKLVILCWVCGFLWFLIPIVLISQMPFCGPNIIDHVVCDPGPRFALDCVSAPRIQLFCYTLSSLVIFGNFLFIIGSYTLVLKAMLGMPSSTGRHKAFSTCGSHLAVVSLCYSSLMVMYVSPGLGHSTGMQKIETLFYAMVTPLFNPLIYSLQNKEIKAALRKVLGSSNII
# Summary of the method: as §1
# [13] = test system: T13, O11H2
# T13 sequence (whole entry): T11 sequence (whole entry) with F90S, T105K, H146L, C156Y, M181K, V192I, N218S, I235L, T243M, V289E
# Summary of the method: as §1
# [14] = test system: T14, O11H4
# T14 sequence (whole entry): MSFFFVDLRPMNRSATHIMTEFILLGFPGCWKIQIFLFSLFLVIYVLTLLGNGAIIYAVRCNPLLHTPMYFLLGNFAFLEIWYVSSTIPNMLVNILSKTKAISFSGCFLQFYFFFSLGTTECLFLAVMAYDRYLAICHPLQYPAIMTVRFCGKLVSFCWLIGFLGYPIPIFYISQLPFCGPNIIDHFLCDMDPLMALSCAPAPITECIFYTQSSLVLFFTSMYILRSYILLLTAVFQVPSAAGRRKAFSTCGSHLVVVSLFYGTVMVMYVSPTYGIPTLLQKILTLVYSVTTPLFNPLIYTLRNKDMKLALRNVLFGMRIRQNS
# Summary of the method: as §1
# [15] = test system: O11H6
# Summary of the method: as §1
# [16] = test system: T15, O11L1
# T15 sequence (whole entry): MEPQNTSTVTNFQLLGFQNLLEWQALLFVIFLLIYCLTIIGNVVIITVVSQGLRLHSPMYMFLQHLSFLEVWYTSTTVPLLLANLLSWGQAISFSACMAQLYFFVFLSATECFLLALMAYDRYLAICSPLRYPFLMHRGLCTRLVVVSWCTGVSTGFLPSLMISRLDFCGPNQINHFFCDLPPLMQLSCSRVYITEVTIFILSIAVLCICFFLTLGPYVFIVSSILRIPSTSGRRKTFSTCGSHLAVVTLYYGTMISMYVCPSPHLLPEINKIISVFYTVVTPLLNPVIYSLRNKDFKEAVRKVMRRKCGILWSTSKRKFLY
# Summary of the method: as §1
# [17] = test system: T16, O12D2
# T16 sequence (whole entry): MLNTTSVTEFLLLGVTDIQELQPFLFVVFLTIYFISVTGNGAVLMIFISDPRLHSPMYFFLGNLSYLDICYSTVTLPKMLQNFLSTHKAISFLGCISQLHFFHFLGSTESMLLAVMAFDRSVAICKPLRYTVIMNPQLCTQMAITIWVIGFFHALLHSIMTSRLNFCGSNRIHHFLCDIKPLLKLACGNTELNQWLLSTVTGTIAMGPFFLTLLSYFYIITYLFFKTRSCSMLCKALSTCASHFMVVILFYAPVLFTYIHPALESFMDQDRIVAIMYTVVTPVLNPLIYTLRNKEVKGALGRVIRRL
# Summary of the method: as §1
# [18] = test system: T17, O13C3
# T17 sequence (whole entry): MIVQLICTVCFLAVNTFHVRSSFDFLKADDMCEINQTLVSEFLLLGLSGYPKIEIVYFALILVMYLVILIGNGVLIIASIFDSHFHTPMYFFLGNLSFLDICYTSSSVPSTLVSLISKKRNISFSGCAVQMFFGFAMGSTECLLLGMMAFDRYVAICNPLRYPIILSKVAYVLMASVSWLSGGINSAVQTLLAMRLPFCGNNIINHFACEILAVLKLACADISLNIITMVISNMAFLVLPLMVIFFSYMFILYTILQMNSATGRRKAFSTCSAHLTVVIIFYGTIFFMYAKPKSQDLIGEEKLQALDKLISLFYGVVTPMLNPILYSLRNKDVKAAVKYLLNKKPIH
# Summary of the method: as §1
smiles,measurement,setting,value
CC(C)CC(=O)O,odorant receptor agonist call,[1],inactive
same,odorant receptor agonist call,[2],inactive
same,odorant receptor agonist call,[3],inactive
same,odorant receptor agonist call,[4],inactive
same,odorant receptor agonist call,[5],inactive
same,odorant receptor agonist call,[6],inactive
same,odorant receptor agonist call,[7],inactive
same,odorant receptor agonist call,[8],inactive
same,odorant receptor agonist call,[9],inactive
same,odorant receptor agonist call,[10],inactive
same,odorant receptor agonist call,[11],inactive
same,odorant receptor agonist call,[12],inactive
same,odorant receptor agonist call,[13],inactive
same,odorant receptor agonist call,[14],active
same,odorant receptor agonist call,[15],active
same,odorant receptor agonist call,[16],inactive
same,odorant receptor agonist call,[17],inactive
same,odorant receptor agonist call,[18],inactive

# Some of the entries so far, tab-delimited:
smiles	measurement	setting	value
CC(C)CC(=O)O	odorant receptor agonist call	[8]	inactive
same	odorant receptor agonist call	[16]	inactive
same	odorant receptor agonist call	[18]	inactive
